Values from PubChem BioAssay AID1224830 (NIAID, 2016).
The whole screen tested about 18,000 reagents; shown is a part drawn at random. In the full data, about 2,900 (16%) got an active call. 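Calls are made per well; low scores hint the gene aids the LPS response, high scores that it dampens it.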 Repeated entries: four replicate wells of each siRNA pool.

- Aim: 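Host factors that control LPS-induced TNF expression in human macrophages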 (primary screen)
- System: human THP-1 monocytic leukaemia cells, TNF dual-luciferase reporter clone, PMA-differentiated to macrophage-like cells
- Reagents: siRNA pool against human genes, 50 nM
- Duration: LPS for 4 h, given about 3 days after siRNA transfection
- Challenge: bacterial LPS (TLR4 ligand), 10 ng/ml
- Read-out: 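Ratio of firefly to renilla light, scaled to the plate median and expressed as a robust z-score per replicate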
- Direction: TNF reporter robust z-score: higher = stronger TNF reporter response to LPS
- Active means: 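a well is active when its z-score exceeds 2.8 or falls below -1.5; control wells carry no call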

target,TNF reporter robust z-score,Outcome
ZNF460 (zinc finger protein 460),1.59,inactive
ZNF460 (zinc finger protein 460),2.58,inactive
ZNF460 (zinc finger protein 460),2.14,inactive
ZNF460 (zinc finger protein 460),0.9,inactive
FGF9 (fibroblast growth factor 9),-0.85,inactive
FGF9 (fibroblast growth factor 9),-0.47,inactive
FGF9 (fibroblast growth factor 9),-1.4,inactive
FGF9 (fibroblast growth factor 9),-1.28,inactive
FKBP15 (FKBP prolyl isomerase family member 15),0.58,inactive
FKBP15 (FKBP prolyl isomerase family member 15),1.45,inactive
FKBP15 (FKBP prolyl isomerase family member 15),-0.54,inactive
FKBP15 (FKBP prolyl isomerase family member 15),-0.46,inactive
"AKR1C6P (aldo-keto reductase family 1 member C6, pseudogene)",-0.91,inactive
"AKR1C6P (aldo-keto reductase family 1 member C6, pseudogene)",0.27,inactive
"AKR1C6P (aldo-keto reductase family 1 member C6, pseudogene)",-0.15,inactive
"AKR1C6P (aldo-keto reductase family 1 member C6, pseudogene)",0.73,inactive
TMEM52B (transmembrane protein 52B),-0.44,inactive
TMEM52B (transmembrane protein 52B),0,inactive
TMEM52B (transmembrane protein 52B),2.16,inactive
TMEM52B (transmembrane protein 52B),-0.84,inactive
C22orf39 (chromosome 22 open reading frame 39),0.26,inactive
C22orf39 (chromosome 22 open reading frame 39),0.4,inactive
C22orf39 (chromosome 22 open reading frame 39),1.35,inactive
C22orf39 (chromosome 22 open reading frame 39),0.92,inactive
RIN3 (Ras and Rab interactor 3),-0.13,inactive
RIN3 (Ras and Rab interactor 3),-0.02,inactive
RIN3 (Ras and Rab interactor 3),-0.25,inactive
RIN3 (Ras and Rab interactor 3),0.44,inactive
ELP5 (elongator acetyltransferase complex subunit 5),-1.08,inactive
ELP5 (elongator acetyltransferase complex subunit 5),-0.81,inactive
ELP5 (elongator acetyltransferase complex subunit 5),-0.68,inactive
ELP5 (elongator acetyltransferase complex subunit 5),-1.57,active
MTA2 (metastasis associated 1 family member 2),-1.61,active
MTA2 (metastasis associated 1 family member 2),-2.01,active
MTA2 (metastasis associated 1 family member 2),-1.7,active
MTA2 (metastasis associated 1 family member 2),-1.2,inactive
SPRR2A (small proline rich protein 2A),-0.53,inactive
SPRR2A (small proline rich protein 2A),1.54,inactive
SPRR2A (small proline rich protein 2A),-0.06,inactive
SPRR2A (small proline rich protein 2A),0.05,inactive
SCGB2A1 (secretoglobin family 2A member 1),0.49,inactive
SCGB2A1 (secretoglobin family 2A member 1),-0.38,inactive
SCGB2A1 (secretoglobin family 2A member 1),-0.17,inactive
SCGB2A1 (secretoglobin family 2A member 1),-0.24,inactive
COX6B2 (cytochrome c oxidase subunit 6B2),-1.32,inactive
COX6B2 (cytochrome c oxidase subunit 6B2),-0.61,inactive
COX6B2 (cytochrome c oxidase subunit 6B2),-1.43,inactive
COX6B2 (cytochrome c oxidase subunit 6B2),-0.96,inactive
ZNF16 (zinc finger protein 16),-1.25,inactive
ZNF16 (zinc finger protein 16),-0.76,inactive
ZNF16 (zinc finger protein 16),-1.41,inactive
ZNF16 (zinc finger protein 16),-0.72,inactive
APOL1 (apolipoprotein L1),0.24,inactive
APOL1 (apolipoprotein L1),3.6,active
APOL1 (apolipoprotein L1),0.35,inactive
APOL1 (apolipoprotein L1),1.82,inactive
OTOP1 (otopetrin 1),-0.62,inactive
OTOP1 (otopetrin 1),-0.74,inactive
OTOP1 (otopetrin 1),-0.86,inactive
OTOP1 (otopetrin 1),0.01,inactive
TFF1 (trefoil factor 1),-0.54,inactive
TFF1 (trefoil factor 1),3.41,active
TFF1 (trefoil factor 1),-0.17,inactive
TFF1 (trefoil factor 1),1.61,inactive
TIMELESS (timeless circadian regulator),0.28,inactive
TIMELESS (timeless circadian regulator),-0.17,inactive
TIMELESS (timeless circadian regulator),-0.19,inactive
TIMELESS (timeless circadian regulator),-0.09,inactive
MAGED2 (MAGE family member D2),-1.37,inactive
MAGED2 (MAGE family member D2),-0.57,inactive
MAGED2 (MAGE family member D2),-0.55,inactive
MAGED2 (MAGE family member D2),-0.53,inactive
CHRM5 (cholinergic receptor muscarinic 5),0.48,inactive
CHRM5 (cholinergic receptor muscarinic 5),0.56,inactive
CHRM5 (cholinergic receptor muscarinic 5),0.25,inactive
CHRM5 (cholinergic receptor muscarinic 5),0.95,inactive
